Values quoted from earlier work in US20210086176A1, “Analyte Detection method” (The Board of Trustees of the Leland Stanford Junior …, priority 2017, published 2021).

Conditions: in vivo; cited from earlier work

Compound: CN1CC[C@]23c4c5ccc(O)c4O[C@H]2[C@@H](O)C=C[C@H]3[C@H]1C5 [morphine]
- minimally effective plasma analgesic concentration (MEAC): 8 ng/mL
